# The whole screen tested about 390,000 compounds, of which about 820 (0.21%) were called active. The shares of active, inactive and inconclusive entries below differ from those in the screen. Calls follow the shape of the dose curve; as a rule, active = well fitted inhibition curve with a large enough effect; inconclusive = small, poorly fitted or top-dose-only effect, or another doubt; inactive = no such curve, though single readings can be large or run the other way. Where the call is inconclusive, the potency comes from a doubtful curve fit.
# Protein sequences, listed by entry. Tags and fused reporters are not part of them.
# UniProt Q92830, whole entry, looked up: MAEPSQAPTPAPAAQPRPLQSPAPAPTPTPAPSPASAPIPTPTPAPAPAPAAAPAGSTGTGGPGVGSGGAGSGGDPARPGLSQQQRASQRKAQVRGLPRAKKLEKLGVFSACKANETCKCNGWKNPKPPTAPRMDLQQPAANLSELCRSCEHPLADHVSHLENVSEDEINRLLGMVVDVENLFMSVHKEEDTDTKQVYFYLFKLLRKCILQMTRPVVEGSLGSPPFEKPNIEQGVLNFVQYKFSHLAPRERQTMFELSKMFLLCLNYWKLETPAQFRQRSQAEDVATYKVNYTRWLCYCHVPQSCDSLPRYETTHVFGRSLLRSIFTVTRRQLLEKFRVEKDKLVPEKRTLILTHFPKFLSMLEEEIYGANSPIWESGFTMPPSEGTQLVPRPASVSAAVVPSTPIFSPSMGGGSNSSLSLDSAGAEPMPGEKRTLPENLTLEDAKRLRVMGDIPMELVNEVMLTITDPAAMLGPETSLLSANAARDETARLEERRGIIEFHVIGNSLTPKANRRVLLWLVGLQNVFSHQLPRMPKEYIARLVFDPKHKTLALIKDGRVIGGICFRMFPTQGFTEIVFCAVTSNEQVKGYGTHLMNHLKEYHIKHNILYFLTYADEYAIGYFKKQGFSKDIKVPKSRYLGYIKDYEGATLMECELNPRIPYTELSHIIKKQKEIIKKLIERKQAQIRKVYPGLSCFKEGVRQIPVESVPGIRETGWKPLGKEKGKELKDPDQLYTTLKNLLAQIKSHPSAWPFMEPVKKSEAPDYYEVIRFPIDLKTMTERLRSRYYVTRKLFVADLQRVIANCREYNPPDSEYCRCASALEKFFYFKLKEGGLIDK
# Molecular target: Histone acetyltransferase KAT2A (Homo sapiens) (UniProt Q92830)
# Test: qHTS Assay for Inhibitors of GCN5L2
# Conditions: GCN5L2 HAT assay, ThioGlo1 CoA-SH fluorescence; activity change, negative = inhibition: at 58.9 µM (top of the series) unless noted
# Procedure, shortened: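 Free CoA generated was detected with ThioGlo1 (50uM) fluorescence at Ex340nm/Em540nm, read immediately and after 20 min at room temperature. Enzyme, 20 nM in HEPES pH 7.5 buffer, saw compounds 15 min before adding 75uM H3(1-25) peptide and 70uM acetyl-CoA.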
# % is scaled to controls: 0 for no effect and ±100 for the full control effect; potency is read from the fitted curve at half-maximal effect.
Compound,Potency,"activity change, negative = inhibition"
CCn1cc(Cl)c(C(=O)Nc2c(C)nn(Cc3c(F)c(F)c(F)c(F)c3F)c2C)n1,"inconclusive: 0.891 µM [inhibitor, full curve, poor fit]",
COc1cc(/C=C2\SC(=O)N(c3cccc(Cl)c3)C2=O)cc([N+](=O)[O-])c1O,"inconclusive: 39.8 µM [inhibitor, single point]",
COc1ccccc1Oc1c(C)oc2c(CN3CCN(C)CC3)c(O)ccc2c1=O,"inconclusive: 28.2 µM [inhibitor, single point]",
CC(=O)Nc1cccc(-c2nc3ccccc3[nH]2)c1,,inactive: -0.9%
CC1(C)OC(=O)C(=CNc2ncccn2)C(=O)O1,"inconclusive: 0.794 µM [inhibitor, single point]",
Cn1c(=O)[nH]c(=O)c2c1[nH]c(=S)n2CCCc1ccccc1,active: 15.8 µM,
FC(F)(F)c1ccc(-c2nnc(-c3cccnc3)o2)cc1,"inconclusive: 3.16 µM [inhibitor, partial curve]",
CC(C)c1cc(NCCOCCO)n2c(nc3ccccc32)c1C#N,"inconclusive: 44.7 µM [inhibitor, partial curve, poor fit]",
Cc1cc(=O)c(C(=O)N[C@@H](C(=O)N[C@@H]2C(=O)N3C(C(=O)O)=C(CSc4nnnn4C)CS[C@H]23)c2ccc(O)cc2)c[nH]1,,inactive: 4.2%
CCCCN1CC(=O)N2[C@H](c3ccc(OC)cc3)[C@@H]3C(=O)N(CC)C(=O)[C@@H]3[C@]2(C)C1=O,,inactive: -2.16%
N#C/C(=C(/O)CN1CCN(c2ccccc2F)CC1)c1nc(-c2ccccc2)cs1,"inconclusive: 39.8 µM [inhibitor, partial curve, poor fit]",
CCOCC(=O)Nc1nnc(C2CCCCC2)s1,"inconclusive: 3.98 µM [inhibitor, single point]",
COc1ccc(N(C(=O)c2cccnc2)S(=O)(=O)c2ccc(OC)c(OC)c2)cc1,"inconclusive: 39.8 µM [inhibitor, single point]",
COc1ccc(NC(=S)NCC(c2cccnc2)N2CCOCC2)cc1 (stereo unspecified),,inactive: -1.05%
CCc1ccccc1N1CSC2=C(C#N)C(c3ccccc3F)CC(=O)N2C1 (stereo unspecified),"inconclusive: 35.5 µM [inhibitor, single point]",
COc1cc(OC)cc(C(=O)NCC(=O)OCC(=O)NC2CCCc3ccccc32)c1 (stereo unspecified),,inactive: -8.33%
Cc1ccc(Cl)c(Cn2cnc3c(cnn3C(C)(C)C)c2=O)c1F,"inconclusive: 28.2 µM [inhibitor, partial curve]",
CCCOc1ccc(C(=O)OCC(=O)NCCc2ccc(OCC)c(OCC)c2)cc1OC,"inconclusive: 0.1 µM [inhibitor, full curve]",
CCCCC/C=C\C/C=C\CCCCCCCC(=O)O,"inconclusive: 28.2 µM [inhibitor, single point]",
O=C1N=C(N2C=CC(=C3C=CNC=C3)C=C2)/C(=C/N=NC(=O)c2ccccc2O)S1,,inactive: -0.445%
O=C(CC1CS(=O)(=O)CC1CC(=O)Nc1ccc2c(c1)OCCO2)Nc1ccc2c(c1)OCCO2 (stereo unspecified),,inactive: -2.59%
N[C@@H](COP(=O)(O)O)C(=O)O,"inconclusive: 22.4 µM [inhibitor, partial curve, poor fit]",
CCOC(=O)N1CCC(NC(=O)c2ccc3c(Cl)c4c(nc3c2)CCCC4)CC1,,inactive: -6.81%

# Part of the list above, tab-delimited.
Compound	Potency	activity change, negative = inhibition
COc1cc(OC)cc(C(=O)NCC(=O)OCC(=O)NC2CCCc3ccccc32)c1 (stereo unspecified)		inactive: -8.33%
Cc1ccc(Cl)c(Cn2cnc3c(cnn3C(C)(C)C)c2=O)c1F	inconclusive: 28.2 µM [inhibitor, partial curve]	
CCCOc1ccc(C(=O)OCC(=O)NCCc2ccc(OCC)c(OCC)c2)cc1OC	inconclusive: 0.1 µM [inhibitor, full curve]	

# Later entries:

Compound,Potency,"activity change, negative = inhibition"
O=C(NCC1CCCO1)C(c1ccncc1)N(Cc1cccs1)C(=O)Cn1nnc(-c2ccc(F)cc2)n1 (stereo unspecified),,inactive: 0.791%
CCCN(CCC)S(=O)(=O)c1ccc(NC(=O)c2cc(C(=O)OC)cc([N+](=O)[O-])c2)cc1,"inconclusive: 0.708 µM [inhibitor, single point]",
Cc1nn(C)cc1S(=O)(=O)Nc1ccc(F)c(F)c1,"inconclusive: 3.98 µM [inhibitor, single point]",
CS(=O)(=O)N1CCc2cc(C(=O)Nc3cccc(F)c3)ccc21,,inactive: -1.9%
Cc1ccc(-c2nnnn2-c2ccc(C)cc2)cc1,,inactive: -2.2%
CCOc1cc(N2CCOCC2)c(OCC)cc1NC(=O)Cc1ccccc1OC,active: 28.2 µM,
COc1ccc2nc3oc(C(=O)N4CCN(c5cccc(Cl)c5)CC4)cc3cc2c1,,inactive: -23.1%
COc1cccc(-c2cc(C(F)(F)F)nc(-n3cccn3)n2)c1,"inconclusive: 44.7 µM [inhibitor, partial curve, poor fit]",
COc1cccc(S(=O)(=O)Nc2ccc3c(c2)OCCO3)c1,"inconclusive: 22.4 µM [inhibitor, partial curve]",
O=C(c1ccc2c3c(cccc13)C(=O)N(O)C2=O)N1CCCCC1,,inactive: -4.7%
C/C(=N\NC(=O)Cc1cccn1C)c1ccc2ccccc2c1,,inconclusive: -98.4% [inhibitor] [at 0.501 µM]
O=C(COc1ccc(Cl)cc1)Nc1nc(-c2ccncc2)cs1,,inactive: -19%
Cc1cc(C(C)(C)C)cc(C)c1Cn1c2[n+](c3ccc(C(F)(F)F)cc31)CCCCC2,,inactive: -22.4%
CCSc1ccc2cc(OC)ccc2[n+]1CC,"inconclusive: 39.8 µM [inhibitor, single point]",
CCN1CCCC1CNC(=O)c1cc(S(N)(=O)=O)ccc1OC (stereo unspecified),"inconclusive: 35.5 µM [inhibitor, single point]",
COc1ccc(C2C3=C(N=C4SCC(=O)N42)c2ccccc2CC3)cc1OC (stereo unspecified),,inactive: -5.8%
Cc1ccc(-c2csc3n[nH]c(=S)n23)cc1,active: 25.1 µM,
c1cc(SSc2ccncc2)ccn1,"inconclusive: 22.4 µM [inhibitor, single point]",
Cc1ccc(-n2nc3c(c2NC(=O)c2cc4ccccc4o2)CS(=O)(=O)C3)cc1,"inconclusive: 39.8 µM [inhibitor, single point]",
COc1ccc(C2=CC(c3ccc(Cl)cc3)n3cnnc3N2)cc1OC (stereo unspecified),"inconclusive: 35.5 µM [inhibitor, single point]",
CN=C1NN=C(c2cc(C)n(-c3c(C)n(C)n(-c4ccccc4)c3=O)c2C)CS1,,inactive: -0.229%
CC1CCCC(C)N1C(=O)c1cc(-c2ccc(Cl)c(Cl)c2)on1 (stereo unspecified),"inconclusive: 10 µM [inhibitor, partial curve]",
CCCCCn1c(N2CCN(Cc3ccccc3)CC2)nc2c1c(=O)[nH]c(=O)n2C,"inconclusive: 0.282 µM [inhibitor, full curve, poor fit]",

# From PubChem BioAssay AID504327 (National Center for Advancing Translational Sciences (NCATS), 2011)
